In article doi:10.1101/2023.04.19.537613:
No constants are given. Whether binding was seen depends on the method and setting. In cells and extracts the contact can be indirect. A yes stands for co-enrichment or nearness to the bait. Other partners may have been found.

Amino acid sequences for entries named in this document (tags omitted).
UniProt Q04656: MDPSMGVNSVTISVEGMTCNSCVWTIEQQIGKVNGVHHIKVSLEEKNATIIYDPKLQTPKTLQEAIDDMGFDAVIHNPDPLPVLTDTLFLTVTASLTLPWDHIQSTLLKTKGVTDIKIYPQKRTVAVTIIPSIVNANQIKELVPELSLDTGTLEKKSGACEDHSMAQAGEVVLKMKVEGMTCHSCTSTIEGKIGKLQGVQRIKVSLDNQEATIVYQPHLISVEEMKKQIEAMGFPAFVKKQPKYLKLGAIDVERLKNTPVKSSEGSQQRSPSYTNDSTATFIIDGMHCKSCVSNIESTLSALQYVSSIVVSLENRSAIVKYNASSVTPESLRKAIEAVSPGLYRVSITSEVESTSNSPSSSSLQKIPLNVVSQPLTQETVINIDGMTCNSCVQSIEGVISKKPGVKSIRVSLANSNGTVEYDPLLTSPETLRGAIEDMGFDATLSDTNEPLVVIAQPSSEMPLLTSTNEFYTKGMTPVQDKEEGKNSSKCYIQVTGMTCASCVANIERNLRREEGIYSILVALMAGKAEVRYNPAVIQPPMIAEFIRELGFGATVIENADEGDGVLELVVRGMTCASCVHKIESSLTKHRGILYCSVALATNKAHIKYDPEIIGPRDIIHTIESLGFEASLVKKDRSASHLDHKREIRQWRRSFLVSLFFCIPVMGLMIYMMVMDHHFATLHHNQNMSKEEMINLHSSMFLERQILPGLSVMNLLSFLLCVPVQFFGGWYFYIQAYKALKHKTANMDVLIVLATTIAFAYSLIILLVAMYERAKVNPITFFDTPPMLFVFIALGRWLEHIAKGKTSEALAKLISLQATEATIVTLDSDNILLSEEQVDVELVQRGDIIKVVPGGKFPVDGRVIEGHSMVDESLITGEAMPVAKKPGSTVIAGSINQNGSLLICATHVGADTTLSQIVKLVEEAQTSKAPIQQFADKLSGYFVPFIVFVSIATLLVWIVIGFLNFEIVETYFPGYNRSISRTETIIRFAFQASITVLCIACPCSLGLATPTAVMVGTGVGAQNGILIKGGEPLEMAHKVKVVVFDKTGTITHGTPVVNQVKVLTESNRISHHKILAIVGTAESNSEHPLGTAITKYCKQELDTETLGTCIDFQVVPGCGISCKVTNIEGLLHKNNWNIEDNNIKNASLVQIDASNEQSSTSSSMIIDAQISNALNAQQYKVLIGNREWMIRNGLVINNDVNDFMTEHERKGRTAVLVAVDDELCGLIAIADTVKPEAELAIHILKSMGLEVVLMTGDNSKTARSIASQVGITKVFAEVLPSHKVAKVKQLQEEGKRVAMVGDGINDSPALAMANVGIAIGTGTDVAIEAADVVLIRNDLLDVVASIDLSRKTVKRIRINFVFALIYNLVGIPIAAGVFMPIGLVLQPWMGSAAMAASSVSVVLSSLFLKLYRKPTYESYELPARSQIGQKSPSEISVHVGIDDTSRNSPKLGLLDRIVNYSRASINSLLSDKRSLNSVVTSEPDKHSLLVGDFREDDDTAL
UniProt P35670: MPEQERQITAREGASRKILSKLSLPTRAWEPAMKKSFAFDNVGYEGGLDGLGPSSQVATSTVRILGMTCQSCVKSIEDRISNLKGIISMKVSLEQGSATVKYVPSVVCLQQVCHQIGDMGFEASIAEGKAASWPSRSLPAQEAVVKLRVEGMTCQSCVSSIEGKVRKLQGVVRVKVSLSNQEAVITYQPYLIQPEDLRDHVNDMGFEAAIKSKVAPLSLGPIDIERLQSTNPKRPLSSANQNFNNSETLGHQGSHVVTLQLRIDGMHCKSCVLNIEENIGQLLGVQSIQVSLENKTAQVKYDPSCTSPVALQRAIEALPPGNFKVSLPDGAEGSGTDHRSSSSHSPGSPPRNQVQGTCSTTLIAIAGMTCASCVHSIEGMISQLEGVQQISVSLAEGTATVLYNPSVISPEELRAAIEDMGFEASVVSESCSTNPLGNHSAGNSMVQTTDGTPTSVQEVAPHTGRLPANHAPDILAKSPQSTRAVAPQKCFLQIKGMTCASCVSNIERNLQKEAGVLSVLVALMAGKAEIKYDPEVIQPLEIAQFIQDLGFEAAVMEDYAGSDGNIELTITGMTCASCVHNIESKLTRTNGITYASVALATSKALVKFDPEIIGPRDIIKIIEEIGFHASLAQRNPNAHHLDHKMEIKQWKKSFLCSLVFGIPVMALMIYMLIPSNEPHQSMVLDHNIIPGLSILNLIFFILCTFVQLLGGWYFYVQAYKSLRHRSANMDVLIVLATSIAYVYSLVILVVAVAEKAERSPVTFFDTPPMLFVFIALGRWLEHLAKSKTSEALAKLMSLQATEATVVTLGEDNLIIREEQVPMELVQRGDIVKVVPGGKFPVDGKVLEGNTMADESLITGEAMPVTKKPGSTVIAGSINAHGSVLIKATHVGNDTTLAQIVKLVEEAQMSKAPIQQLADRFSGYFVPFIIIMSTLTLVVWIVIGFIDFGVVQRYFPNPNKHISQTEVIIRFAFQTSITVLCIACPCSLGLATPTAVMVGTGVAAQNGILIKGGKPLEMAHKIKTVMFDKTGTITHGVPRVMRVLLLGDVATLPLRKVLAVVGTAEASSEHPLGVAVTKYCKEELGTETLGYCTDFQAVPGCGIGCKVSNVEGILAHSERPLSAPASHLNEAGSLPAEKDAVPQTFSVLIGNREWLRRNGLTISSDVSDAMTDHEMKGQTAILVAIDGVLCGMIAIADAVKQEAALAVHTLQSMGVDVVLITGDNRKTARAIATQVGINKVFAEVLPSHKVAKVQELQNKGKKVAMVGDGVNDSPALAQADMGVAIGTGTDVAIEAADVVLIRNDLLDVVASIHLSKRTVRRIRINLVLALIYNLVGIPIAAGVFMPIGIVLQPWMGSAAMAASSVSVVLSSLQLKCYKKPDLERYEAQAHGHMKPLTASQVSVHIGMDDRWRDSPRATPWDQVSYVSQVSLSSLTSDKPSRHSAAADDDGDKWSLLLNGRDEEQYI
UniProt A0A8I3MGM6: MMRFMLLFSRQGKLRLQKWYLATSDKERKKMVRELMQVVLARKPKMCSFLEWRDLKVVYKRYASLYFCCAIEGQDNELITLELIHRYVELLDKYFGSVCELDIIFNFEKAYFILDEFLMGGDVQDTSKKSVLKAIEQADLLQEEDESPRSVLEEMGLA
UniProt A0A8I3PSI8: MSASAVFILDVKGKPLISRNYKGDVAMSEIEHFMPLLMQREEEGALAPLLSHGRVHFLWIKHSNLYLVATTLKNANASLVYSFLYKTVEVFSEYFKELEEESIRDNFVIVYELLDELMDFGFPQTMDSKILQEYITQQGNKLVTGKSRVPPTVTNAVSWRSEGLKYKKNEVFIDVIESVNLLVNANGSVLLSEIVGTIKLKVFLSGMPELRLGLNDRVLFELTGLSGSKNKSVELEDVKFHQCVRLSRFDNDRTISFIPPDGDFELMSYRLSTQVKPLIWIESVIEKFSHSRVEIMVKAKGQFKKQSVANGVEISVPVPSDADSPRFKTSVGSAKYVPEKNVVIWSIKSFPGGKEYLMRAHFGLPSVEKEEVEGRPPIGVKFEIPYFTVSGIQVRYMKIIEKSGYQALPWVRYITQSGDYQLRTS

Key:
[1] = target: APEX2-mKO2-HA-ATP7A (human) (UniProt Q04656); assay: proximity labelling
[2] = target: APEX2-ATP7B-EGFP (human) (UniProt P35670); assay: proximity labelling

AP-1 complex σ subunit AP1S1 (from UniProt A0A8I3MGM6 1-158)
binding [1]: binds
binding [2]: binds

AP-1 complex µ subunit AP1M2 (from UniProt A0A8I3PSI8 1-425)
binding [1]: binds
binding [2]: binds
